# Laboratory results taken from the supplement of paper PMC4604168 (melanoma cell lines).
# This is one part of the list. Repeats are few or missing, and single values can be far off.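 The apoptosis fraction was the count of cleaved-PARP antibody-stained nuclei relative to all DNA-stained nuclei, imaged in 1,536-well plates. Screening doses were set so most cells survived, and baseline and induced cleaved-PARP levels vary greatly across cell lines.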
# Test system: UACC257
# Experiment: cleaved PARP positive nuclei fraction relative to DMSO control; melanoma cells; higher = more apoptosis
# Conditions: library dose: low library concentration; 72 h
row,SMILES,cleaved PARP positive nuclei fraction [%]
1,"C[C@@H](N)c1ccc(C(=O)Nc2ccnc3[nH]ccc23)cc1 + Cc1cc([N+](=O)[O-])ccc1NS(=O)(=O)c1cc(Cl)ccc1Cl [FH535] (first compound 0.4 µM, partner dose 1 µM)",97.1
2,"CS(=O)(=O)c1ccc(C(=O)Nc2ccc(Cl)c(-c3ccccn3)c2)c(Cl)c1 [vismodegib] + O=S(=O)(c1ccccc1)N(CC(F)(F)F)c1ccc(C(O)(C(F)(F)F)C(F)(F)F)cc1 [T0901317] (first compound 1 µM, partner dose 1.4 µM)",59.1
3,"CCN(CC)CCNC(=O)c1c(C)[nH]c(/C=C2\C(=O)Nc3ccc(F)cc32)c1C [sunitinib] + COc1cc(N2CCC(N3CCN(C)CC3)CC2)ccc1Nc1ncc(Cl)c(Nc2ccccc2S(=O)(=O)C(C)C)n1 [NVP-TAE684] (first compound 0.4 µM, partner dose 0.08 µM)",180
4,"CC1(C)CCC(c2ccc(Cl)cc2)=C(CN2CCN(c3ccc(C(=O)NS(=O)(=O)c4ccc(N[C@H](CCN5CCOCC5)CSc5ccccc5)c(S(=O)(=O)C(F)(F)F)c4)cc3)CC2)C1 + CC(C)CCN1c2nc(Nc3cc(F)c(O)c(F)c3)ncc2N(C)C(=O)C1C [BID1870] (first compound 0.4 µM, partner dose 0.2 µM)",19.8
5,"C[C@@H](N)c1ccc(C(=O)Nc2ccnc3[nH]ccc23)cc1 + CN(NC(=O)CC(=O)NN(C)C(=S)c1ccccc1)C(=S)c1ccccc1 [STA4783] (first compound 0.4 µM, partner dose 0.006 µM)",241
6,"NC1(c2ccc(-c3nc4ccn5c(=O)[nH]nc5c4cc3-c3ccccc3)cc2)CCC1 + COc1cc(N2CCC(N3CCN(C)CC3)CC2)ccc1Nc1ncc(Cl)c(Nc2ccccc2S(=O)(=O)C(C)C)n1 [NVP-TAE684] (first compound 0.4 µM, partner dose 0.08 µM)",317
7,"NC(=O)c1ccc(N(C(N)=O)c2c(F)cccc2F)nc1-c1ccc(F)cc1F + CCCCCCCCCCCC1=C(O)C(=O)C=C(O)C1=O [Embelin] (first compound 0.4 µM, partner dose 1.2 µM)",103
8,"CS(=O)(=O)c1ccc(C(=O)Nc2ccc(Cl)c(-c3ccccn3)c2)c(Cl)c1 [vismodegib] + NCC(=O)Nc1ccc(-n2nc(C(F)(F)F)cc2-c2ccc3c(ccc4ccccc43)c2)cc1 [OSU03012] (first compound 1 µM, partner dose 1 µM)",170
9,"NC1(c2ccc(-c3nc4ccn5c(=O)[nH]nc5c4cc3-c3ccccc3)cc2)CCC1 + O=S(=O)(c1ccccc1)N(CC(F)(F)F)c1ccc(C(O)(C(F)(F)F)C(F)(F)F)cc1 [T0901317] (first compound 0.4 µM, partner dose 1.4 µM)",89.1
10,"NC(=O)c1ccc(N(C(N)=O)c2c(F)cccc2F)nc1-c1ccc(F)cc1F + CC(C)(C)c1cnc(CSc2cnc(NC(=O)C3CCNCC3)s2)o1 [SNS-032] (first compound 0.4 µM, partner dose 0.01 µM)",25.5
11,"NC(=O)c1ccc(N(C(N)=O)c2c(F)cccc2F)nc1-c1ccc(F)cc1F + CO[C@@H]1[C@H](N(C)C(=O)c2ccccc2)C[C@H]2O[C@]1(C)n1c3ccccc3c3c4c(c5c6ccccc6n2c5c31)C(=O)NC4 [Midostaurin] (first compound 0.4 µM, partner dose 0.08 µM)",69.1
12,"Cn1cnc2c(F)c(Nc3ccc(Br)cc3Cl)c(C(=O)NOCCO)cc21 [selumetinib] + COc1cc2c(Oc3ccc4[nH]c(C)cc4c3F)ncnc2cc1OCCCN1CCCC1 [cediranib] (first compound 0.015 µM, partner dose 0.4 µM)",56
13,"C[C@]1(O)C[C@@H](c2nc(-c3ccc4ccc(-c5ccccc5)nc4c3)c3c(N)nccn32)C1 + c1cc(-c2cnn3cc(-c4ccc(OCCN5CCCCC5)cc4)cnc23)ccn1 [Dorsomorphin] (first compound 0.4 µM, partner dose 0.4 µM)",188
14,"CC1(C)CCC(c2ccc(Cl)cc2)=C(CN2CCN(c3ccc(C(=O)NS(=O)(=O)c4ccc(N[C@H](CCN5CCOCC5)CSc5ccccc5)c(S(=O)(=O)C(F)(F)F)c4)cc3)CC2)C1 + NCC(=O)Nc1ccc(-n2nc(C(F)(F)F)cc2-c2ccc3c(ccc4ccccc43)c2)cc1 [OSU03012] (first compound 0.4 µM, partner dose 1 µM)",450
15,"CN(c1ncccc1CNc1nc(Nc2ccc3c(c2)CC(=O)N3)ncc1C(F)(F)F)S(C)(=O)=O + O=C(O)c1ccc(-c2c[nH]c3ncc(-c4ccccc4)cc23)cc1C1CCCC1 [GSK650394] (first compound 0.08 µM, partner dose 0.16 µM)",200
16,"NC(=O)c1ccc(N(C(N)=O)c2c(F)cccc2F)nc1-c1ccc(F)cc1F + COc1ccc(-c2ccc3c(N4CCOCC4)nc(N4C[C@@H](C)O[C@@H](C)C4)nc3n2)cc1CO [KU0063794] (first compound 0.4 µM, partner dose 0.02 µM)",113
17,"NC1(c2ccc(-c3nc4ccn5c(=O)[nH]nc5c4cc3-c3ccccc3)cc2)CCC1 + CCCCCCCCCCCC1=C(O)C(=O)C=C(O)C1=O [Embelin] (first compound 0.4 µM, partner dose 1.2 µM)",99.2
18,"NC(=O)c1ccc(N(C(N)=O)c2c(F)cccc2F)nc1-c1ccc(F)cc1F + CC1(C)NC(=O)N(c2ccc([N+](=O)[O-])c(C(F)(F)F)c2)C1=O [nilutamide] (first compound 0.4 µM, partner dose 1 µM)",71.5
19,"COc1ccc(C2=N[C@@H](c3ccc(Cl)cc3)[C@@H](c3ccc(Cl)cc3)N2C(=O)N2CCNC(=O)C2)c(OC(C)C)c1 [Nutlin-3] + Cn1cncc1[C@@](N)(c1ccc(Cl)cc1)c1ccc2c(c1)c(-c1cccc(Cl)c1)cc(=O)n2C [tipifarnib] (first compound 0.1 µM, partner dose 0.01 µM)",183
20,"CN(c1ncccc1CNc1nc(Nc2ccc3c(c2)CC(=O)N3)ncc1C(F)(F)F)S(C)(=O)=O + Cc1cc([N+](=O)[O-])ccc1NS(=O)(=O)c1cc(Cl)ccc1Cl [FH535] (first compound 0.08 µM, partner dose 1 µM)",101
21,"CC(=O)O[C@@]12CO[C@@H]1C[C@H](O)[C@@]1(C)C(=O)[C@H](O)C3=C(C)[C@@H](OC(=O)[C@H](O)[C@@H](NC(=O)OC(C)(C)C)c4ccccc4)C[C@@](O)([C@@H](OC(=O)c4ccccc4)[C@H]21)C3(C)C [Docetaxel] + N#Cc1c(O)c2c(-c3ccc(-c4ccccc4O)cc3)csc2[nH]c1=O [A769662] (first compound 0.0001 µM, partner dose 2 µM)",386
22,"CC(=O)O[C@@]12CO[C@@H]1C[C@H](O)[C@@]1(C)C(=O)[C@H](O)C3=C(C)[C@@H](OC(=O)[C@H](O)[C@@H](NC(=O)OC(C)(C)C)c4ccccc4)C[C@@](O)([C@@H](OC(=O)c4ccccc4)[C@H]21)C3(C)C [Docetaxel] + COc1ccc2c(c1)CCC1C2CCC2(C)C(NCCCCCCN3C(=O)C=CC3=O)CCC12 [U73122] (first compound 0.0001 µM, partner dose 0.4 µM)",654
23,"CN(c1ncccc1CNc1nc(Nc2ccc3c(c2)CC(=O)N3)ncc1C(F)(F)F)S(C)(=O)=O + COc1cc(N2CCC(N3CCN(C)CC3)CC2)ccc1Nc1ncc(Cl)c(Nc2ccccc2S(=O)(=O)C(C)C)n1 [NVP-TAE684] (first compound 0.08 µM, partner dose 0.08 µM)",285
24,"NC(=O)c1ccc(N(C(N)=O)c2c(F)cccc2F)nc1-c1ccc(F)cc1F + O=C(O)c1ccc(-c2c[nH]c3ncc(-c4ccccc4)cc23)cc1C1CCCC1 [GSK650394] (first compound 0.4 µM, partner dose 0.16 µM)",113
25,"C[C@@H](N)c1ccc(C(=O)Nc2ccnc3[nH]ccc23)cc1 + Cc1cc(N2CCOCC2)cc2[nH]c(-c3c(NC[C@@H](O)c4cccc(Cl)c4)cc[nH]c3=O)nc12 [BMS536924] (first compound 0.4 µM, partner dose 0.2 µM)",280
26,"CC(=O)O[C@@]12CO[C@@H]1C[C@H](O)[C@@]1(C)C(=O)[C@H](O)C3=C(C)[C@@H](OC(=O)[C@H](O)[C@@H](NC(=O)OC(C)(C)C)c4ccccc4)C[C@@](O)([C@@H](OC(=O)c4ccccc4)[C@H]21)C3(C)C [Docetaxel] + COc1ccc(-c2ccc3c(N4CCOCC4)nc(N4C[C@@H](C)O[C@@H](C)C4)nc3n2)cc1CO [KU0063794] (first compound 0.0001 µM, partner dose 0.02 µM)",354
27,"CCCCCCCCc1ccc(CCC(N)(CO)CO)cc1 [fingolimod] + Cc1cc([N+](=O)[O-])ccc1NS(=O)(=O)c1cc(Cl)ccc1Cl [FH535] (first compound 2 µM, partner dose 1 µM)",136
28,"CCCCCCCCc1ccc(CCC(N)(CO)CO)cc1 [fingolimod] + Cn1cc(/C=C2\C(=O)Nc3cccnc32)c2ccccc21 [GW441756] (first compound 2 µM, partner dose 0.4 µM)",648
29,"Cn1cnc2c(F)c(Nc3ccc(Br)cc3Cl)c(C(=O)NOCCO)cc21 [selumetinib] + O=C(Nc1ccccc1)c1cc([N+](=O)[O-])ccc1Cl [GW9662] (first compound 0.015 µM, partner dose 2 µM)",148

# As entered above:
# NC1(c2ccc(-c3nc4ccn5c(=O)[nH]nc5c4cc3-c3ccccc3)cc2)CCC1 + CCCCCCCCCCCC1=C(O)C(=O)C=C(O)C1=O [Embelin] (first compound 0.4 µM, partner dose 1.2 µM) – cleaved PARP positive nuclei fraction [%]: 99.2
# CC1(C)CCC(c2ccc(Cl)cc2)=C(CN2CCN(c3ccc(C(=O)NS(=O)(=O)c4ccc(N[C@H](CCN5CCOCC5)CSc5ccccc5)c(S(=O)(=O)C(F)(F)F)c4)cc3)CC2)C1 + CC(C)CCN1c2nc(Nc3cc(F)c(O)c(F)c3)ncc2N(C)C(=O)C1C [BID1870] (first compound 0.4 µM, partner dose 0.2 µM) – cleaved PARP positive nuclei fraction [%]: 19.8
